Data source: PubChem BioAssay AID652272 (Drosophila RNAi Screening Center, 2013)

- Assay: 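Genome-wide knock-down search for components of Hedgehog signalling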 (primary screen)
- Cell system: Drosophila clone 8 (Cl8) cells
- Reagents: long dsRNA against Drosophila genes
- Measurement: 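Firefly light from a Hedgehog-responsive ptc promoter reporter and Renilla reference light, both read on a plate reader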
- Scale: firefly Hh reporter signal: higher = more ptc reporter light; Renilla reference signal: higher = more Renilla control light
- Rule for the call: 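Hit when the z-score averaged over two replicates is under -2 or over +3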
- Meaning of the calls: active = hit: reporter lowered or raised; inactive = not a hit
The screen tested about 21,000 reagents; below is an unselected part of those with a known target gene and a result. Of all reagents, 503 (2.4%) got an active call. 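Raw plate light values, not normalised; calls rest on replicate z-scores that were not deposited; hits include reporter decreases as well as increases.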 Reagents against one gene are numbered here. A plus sign joins genes that one reagent is predicted to hit. Reagent sequences are not shown. Not stated in the record: the amount of reagent, the time to read-out.

target	reagent	firefly Hh reporter signal, replicate 1	firefly Hh reporter signal, replicate 2	firefly Hh reporter signal, replicate 3	Renilla reference signal, replicate 1	Renilla reference signal, replicate 2	outcome
RpL11 (GeneID 37235)	1	22557	21561		2212	1779	active
eIF4H2 (GeneID 43645)	1	1.02e5	90817		2515	2547	inactive
CG13996 (GeneID 33842)	1	1.39e5	60336		3523	5996	inactive
CG31705 (GeneID 34577)	1	71298	75793		3568	3527	inactive
CG12581 (GeneID 40522)	1	1.32e5	1.08e5		5545	4976	inactive
CG12581 (GeneID 40522)	2	1.38e5	1.87e5		4661	5030	inactive
Akh (GeneID 38495)	1	80826	53448		2485	3765	inactive
CG7523 (GeneID 42125)	1	1.07e5	1.12e5		4609	3577	inactive
CG6034 (GeneID 39974)	1	1.09e5			4388	2912	inactive
HBS1 (GeneID 117365)	1	99565	1.06e5		4331	3768	inactive
CG9568 (GeneID 34227)	1	1.15e5	4.47e5	67607	2978	26960	inactive
Sirt1 (GeneID 34708)	1	77851	45047		2512	1677	inactive
hoe1 (GeneID 249663)	1	55851	50450		2688	1945	inactive
hoe1 (GeneID 249663)	2	1.51e5	52461		4160	6289	inactive
hoe1 (GeneID 249663)	3	1.34e5	35029		3988	4828	inactive
CG43693 (GeneID 39231)	1	1.36e5	2.44e5		4432	10354	inactive
CG43693 (GeneID 39231)	2	81220	56325		4784	2368	inactive
Hmr (GeneID 31988)	1	44080	1.91e5		1318	7264	inactive
CG7420 (GeneID 33332)	1	71808	75921		2696	3197	inactive
Msr-110 (GeneID 38629)	1	1.05e5	82644		4597	3488	inactive
Polr1D + DCTN6-p27	1	57372	40116		1756	4625	inactive
Pp1-Y1 (GeneID 5740113)	1	5.21e5	3.47e5		23937	6721	inactive
CG31473 (GeneID 318753)	1	1.03e5	1.58e5		2709	4471	inactive
Cht10 (GeneID 3355116)	1	91730	41364		2480	3789	inactive
Cht10 (GeneID 3355116)	2	64474	62870		2833	2301	inactive
Cht10 (GeneID 3355116)	3	83012	46018		2299	4392	inactive
Plod (GeneID 39265)	1	82800	61552		4020	2677	inactive
Plod (GeneID 39265)	2	54992	46903	37356	4965	2728	inactive
Fdh (GeneID 41311)	1	1.50e5	94584		4715	3537	inactive
CG15124 (GeneID 37256)	1	80530	63558		2330	4165	inactive
GstO2 (GeneID 38974)	1	77228	52465		3496	2352	inactive
Fuca (GeneID 3772574)	1	90823	58426	51713	6746	3846	inactive
CadN (GeneID 35070)	1	1.26e5	70896		4121	6460	inactive
Mtpalpha (GeneID 34276)	1	64827	56320		2727	2411	inactive
CG31663 (GeneID 33363)	1	8.08e5	4.32e5		41304	15629	inactive
CG31663 (GeneID 33363)	2	1.46e5	1.22e5		5794	4748	inactive
CG31663 (GeneID 33363)	3	5.44e5	84467		3896	3896	inactive
CG31663 (GeneID 33363)	4	1.03e5	95500		2236	2130	inactive
scny (GeneID 38648)	1	70374	80585		3050	3480	inactive
scny (GeneID 38648)	2	27634	25652		2934	2099	inactive

Active calls, among the entries above:
target	reagent	firefly Hh reporter signal, replicate 1	firefly Hh reporter signal, replicate 2	firefly Hh reporter signal, replicate 3	Renilla reference signal, replicate 1	Renilla reference signal, replicate 2	outcome
RpL11 (GeneID 37235)	1	22557	21561		2212	1779	active
